Assay results published in PMC11811183.

Chains of the proteins cited; added tags and fusions are not shown.
UniProt Q8VBV4: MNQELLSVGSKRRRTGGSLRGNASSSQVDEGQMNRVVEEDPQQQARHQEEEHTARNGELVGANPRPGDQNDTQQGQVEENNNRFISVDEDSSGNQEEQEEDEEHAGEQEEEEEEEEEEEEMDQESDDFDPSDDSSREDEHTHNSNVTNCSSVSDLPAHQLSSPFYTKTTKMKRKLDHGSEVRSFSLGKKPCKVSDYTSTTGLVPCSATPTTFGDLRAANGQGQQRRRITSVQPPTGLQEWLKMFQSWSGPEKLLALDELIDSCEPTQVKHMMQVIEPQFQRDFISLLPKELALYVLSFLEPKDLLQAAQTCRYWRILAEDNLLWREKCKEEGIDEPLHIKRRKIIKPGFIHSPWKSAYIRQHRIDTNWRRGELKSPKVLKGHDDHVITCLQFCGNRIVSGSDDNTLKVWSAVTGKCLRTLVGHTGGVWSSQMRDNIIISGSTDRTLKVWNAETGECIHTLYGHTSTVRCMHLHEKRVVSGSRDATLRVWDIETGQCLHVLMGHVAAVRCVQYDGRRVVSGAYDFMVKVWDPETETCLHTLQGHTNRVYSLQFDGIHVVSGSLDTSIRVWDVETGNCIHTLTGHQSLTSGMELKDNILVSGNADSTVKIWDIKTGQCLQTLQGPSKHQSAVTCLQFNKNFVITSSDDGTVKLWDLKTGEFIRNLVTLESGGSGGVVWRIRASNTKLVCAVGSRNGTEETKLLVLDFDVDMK
UniProt Q8BSK8: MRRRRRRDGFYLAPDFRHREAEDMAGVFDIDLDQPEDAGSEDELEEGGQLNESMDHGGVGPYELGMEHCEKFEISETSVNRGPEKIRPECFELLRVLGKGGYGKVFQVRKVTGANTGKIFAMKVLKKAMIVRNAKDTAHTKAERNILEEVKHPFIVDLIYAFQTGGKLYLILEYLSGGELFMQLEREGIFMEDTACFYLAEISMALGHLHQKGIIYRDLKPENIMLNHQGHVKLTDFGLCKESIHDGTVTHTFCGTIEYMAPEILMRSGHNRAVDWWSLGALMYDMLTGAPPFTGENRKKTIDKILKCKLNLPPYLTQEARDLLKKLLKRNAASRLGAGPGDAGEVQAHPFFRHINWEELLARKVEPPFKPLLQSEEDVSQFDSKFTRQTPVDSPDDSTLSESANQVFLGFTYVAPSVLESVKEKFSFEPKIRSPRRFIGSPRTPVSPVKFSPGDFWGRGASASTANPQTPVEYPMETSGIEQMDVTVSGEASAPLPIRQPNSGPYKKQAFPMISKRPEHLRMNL

Target: FBXW7 overexpressed by adenovirus (ADV-FBXW7) (UniProt Q8VBV4)
Experiment: affinity purification with mass spectrometry; mature brown adipocytes infected with ADV-FBXW7 for 48 h; lysate with anti-FBXW7 or anti-IgG and protein A/G beads overnight at 4 °C; SDS-PAGE, silver staining, LC-MS

binding: binds
Substance: S6K1 (endogenous) (from UniProt Q8BSK8 1-525)

These are yes or no findings as the source states them, for the method shown. In cells and extracts the contact can be indirect. Here binding means that the protein was enriched with, or labelled near, the bait; the list need not be complete.
